Results are given in words; binding and its absence hold for the method and conditions named. For some assays here: In cells and extracts the contact can be indirect. Some binding calls cover weakened binding; strength is not graded here. For some assays here: Sequences can lack the tags named with a protein.
Experiments:
[1] = biological target: EGFP::P4.33 fusion protein (human) [GFP: P42212]; assay: co-immunoprecipitation, western immunoblot
[2] = biological target: EGFP::P4.33 fusion protein (human) [GFP: P42212]; assay: co-immunoprecipitation with α-FLAG M2 beads or α-GFP antibody, western immunoblot with the opposing antibody
[3] = biological target: EGFP::P4.33 fusion protein (human) [GFP: P42212]; assay: colocalization and co-immunoprecipitation in transfected COS-7 cells
[4] = biological target: EGFP::P4.33 fusion protein (human) [GFP: P42212]; assay: co-immunoprecipitation with anti-EGFP or anti-FLAG M2 antibody
[5] = biological target: T1, clone 4.33 library cDNA product fused to the GAL4 transcriptional activation domain (yeast two-hybrid prey) (human) (UniProt Q86XT9); assay: yeast two-hybrid, β-galactosidase and mating assays
T1 sequence: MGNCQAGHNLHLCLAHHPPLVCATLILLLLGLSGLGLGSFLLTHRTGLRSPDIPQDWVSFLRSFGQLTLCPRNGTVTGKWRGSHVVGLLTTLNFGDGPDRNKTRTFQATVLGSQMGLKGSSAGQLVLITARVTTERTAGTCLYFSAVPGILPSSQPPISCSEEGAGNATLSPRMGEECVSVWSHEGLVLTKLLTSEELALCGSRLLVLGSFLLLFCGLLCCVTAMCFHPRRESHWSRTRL

Chains of the proteins cited; added tags and fusions are not shown. Lines headed by an entry give the natural chain unless they say otherwise; changes in a name come on top.
UniProt P0A7C2: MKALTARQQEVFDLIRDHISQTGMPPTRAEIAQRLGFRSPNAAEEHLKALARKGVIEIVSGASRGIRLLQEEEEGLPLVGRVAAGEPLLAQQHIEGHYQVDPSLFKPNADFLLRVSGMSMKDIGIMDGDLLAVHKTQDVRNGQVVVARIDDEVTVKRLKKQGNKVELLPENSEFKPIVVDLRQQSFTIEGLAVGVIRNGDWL

[6] = biological target: T1, clone 4.33 library cDNA product fused to the GAL4 transcriptional activation domain (yeast two-hybrid prey) (human); assay: yeast two-hybrid screen of an Hs578T cDNA library
[7] = biological target: T1, clone 4.33 library cDNA product fused to the GAL4 transcriptional activation domain (yeast two-hybrid prey) (human); assay: yeast two-hybrid screen
[8] = biological target: T2, P4.33 tagged with FLAG at the C-terminus (P4.33^F) (human) (UniProt Q86XT9); assay: monolayer cell-surface binding assay, Hs578T, MCF-7 and Sf9 cells
T2 sequence: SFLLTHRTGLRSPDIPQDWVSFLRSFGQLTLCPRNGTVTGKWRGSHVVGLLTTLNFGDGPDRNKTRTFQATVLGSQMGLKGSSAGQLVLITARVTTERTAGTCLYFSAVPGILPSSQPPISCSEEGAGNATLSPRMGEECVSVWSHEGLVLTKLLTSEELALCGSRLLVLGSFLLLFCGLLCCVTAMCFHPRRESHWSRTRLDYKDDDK

[9] = biological target: T2, P4.33 tagged with FLAG at the C-terminus (P4.33^F) (human); assay: cell-surface binding competed by cold IGFBP-3, transfected Hs578T cells
[10] = biological target: T2, P4.33 tagged with FLAG at the C-terminus (P4.33^F) (human); assay: western ligand blot of immunoprecipitated IGFBP-3R^F
[11] = biological target: T2, P4.33 tagged with FLAG at the C-terminus (P4.33^F) (human); assay: cell-surface binding with unlabelled IGFBP-3 as competitor, transfected Hs578T cells

Measured: binding

FLAG-tagged IGFBP-3 (IGFBP-3^F) (from UniProt P17936 28-291) (ligand)
binds: [1] | [2] | [3] | [4]

IGFBP-3 amino acids 88-148 fused to the LexA DNA binding domain (yeast two-hybrid bait) (from UniProt P0A7C2 1-202; P17936 115-175)
binds: [5] | [6] | [7]

Insulin-like Growth Factor Binding Protein-3 (IGFBP-3) (from UniProt P17936 28-291) (ligand)
binds: [8] | [9] | [10] | [11]
